Measurements reported in PubChem BioAssay AID1259425 (University of Nebraska Medical Center, 2018)
Assay: 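Find knockdowns that reproduce the gene expression pattern seen when KSR1 is lost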 (primary screen). Cells: HCT116 human colon cancer cells. Reagents: siRNA pool against human genes, 50 nM siRNA. Read-out: 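After 50 nM siRNA pool, branched-DNA assay measures six marker transcripts per well, minus blank, normalised to the geometric mean of two housekeeping transcripts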. Scale: BNIP3L mRNA: higher = more BNIP3L transcript after knockdown; NDRG1 mRNA: higher = more NDRG1 transcript after knockdown; BNIP3 mRNA: higher = more BNIP3 transcript after knockdown; ALDOC mRNA: higher = more ALDOC transcript after knockdown.
Shown is an unselected part of about 14,000 deposited reagents. Further read-outs or replicates are left out here. No sequences are given here. The record does not give: the time to read-out.

| gene symbol | BNIP3L mRNA, set 1 | NDRG1 mRNA, set 1 | BNIP3 mRNA, set 1 | ALDOC mRNA, set 1 |
| --- | --- | --- | --- | --- |
| ZIC3 (Zic family zinc finger 3) | 0.0665 | 0.142 | 0.241 | 0.000523 |
| MCF2L (MCF.2 cell line derived transforming sequence like) | 0.0333 | 0.438 | 0.304 | 0.0457 |
| SIRPB1 (signal regulatory protein beta 1) | 0.163 | 0.299 | 0.413 | 0.0288 |
| FNTA (farnesyltransferase, CAAX box, subunit alpha) | 0.152 | 0.202 | 0.374 | 0.0491 |
| MPHOSPH6 (M-phase phosphoprotein 6) | 0.286 | 0.347 | 0.699 | 0.0565 |
| MRPL35 (mitochondrial ribosomal protein L35) | 0.455 | 0.528 | 1.53 | 0.255 |
| ARPC5L (actin related protein 2/3 complex subunit 5 like) | 0.138 | 0.134 | 0.323 | 0.0452 |
| CD84 (CD84 molecule) | 0.107 | 0.144 | 0.26 | 0.0237 |
| TRPV4 | 0.0533 | 0.229 | 0.284 | 0.0484 |
| MND1 (meiotic nuclear divisions 1) | 0.154 | 0.173 | 0.216 | 0.0448 |
| WDFY3 (WD repeat and FYVE domain containing 3) | 0.116 | 0.196 | 0.228 | 0.0124 |
| NUTM2F (NUT family member 2F) | 0.0867 | 0.445 | 0.398 | 0.0192 |
| TMEM74B (transmembrane protein 74B) | 0.117 | 0.239 | 0.211 | 0.0327 |
| BIRC3 (baculoviral IAP repeat containing 3) | 0.0854 | 0.119 | 0.241 | 0.0326 |
| TSHZ3 (teashirt zinc finger homeobox 3) | 0.103 | 0.417 | 0.337 | 0.0284 |
| SULT2B1 (sulfotransferase family 2B member 1) | 0.33 | 0.462 | 0.365 | 0.0215 |
| GPC3 (glypican 3) | 0.143 | 0.434 | 0.585 | 0.0585 |
| OAS3 (2'-5'-oligoadenylate synthetase 3) | 0.0822 | 0.278 | 0.319 | 0.0374 |
| RGL2 (ral guanine nucleotide dissociation stimulator like 2) | 0.133 | 0.256 | 0.218 | 0.0444 |
| FIRRM (FIGNL1 interacting regulator of recombination and mitosis) | 0.163 | 0.787 | 0.44 | 0.038 |
| BAZ1A (bromodomain adjacent to zinc finger domain 1A) | 0.105 | 0.162 | 0.341 | 0.0512 |
| HCN2 | 0.195 | 0.0683 | 0.209 | 0.0532 |
| SLFN12 (schlafen family member 12) | 0.143 | 0.367 | 0.255 | 0.0458 |
| SULT1E1 (sulfotransferase family 1E member 1) | 0.0597 | 0.0708 | 0.257 | 0.0209 |
| RPS4Y1 (ribosomal protein S4 Y-linked 1) | 0.0717 | 0.265 | 0.216 | 0.0199 |
| PTAFR (platelet activating factor receptor) | 0.188 | 0.401 | 0.389 | 0.0333 |
| HSD3B7 | 0.29 | 0.571 | 0.53 | 0.0317 |
| DDI2 (DDI proteasomal shuttling factor 2) | 0.0553 | 0.0672 | 0.21 | 0.0173 |
| TSSK6 (testis specific serine kinase 6) | 0.138 | 0.196 | 0.342 | 0.0112 |
| VPS39 (VPS39 subunit of HOPS complex) | 0.12 | 0.231 | 0.234 | 0.0179 |
| BLTP2 (bridge-like lipid transfer protein family member 2) | 0.19 | 0.199 | 0.353 | 0.0337 |
| PECR (peroxisomal trans-2-enoyl-CoA reductase) | 0.126 | 0.059 | 0.212 | 0.015 |
| VDAC2 (voltage dependent anion channel 2) | 0.066 | 0.2 | 0.224 | 0.0317 |
| INSL3 (insulin like 3) | 0.108 | 0.3 | 0.155 | 0.0267 |
| ASGR1 (asialoglycoprotein receptor 1) | 0.13 | 0.17 | 0.382 | 0.0666 |
| UBXN7 (UBX domain protein 7) | 0.121 | 0.236 | 0.545 | 0.0236 |
| GPR52 (G protein-coupled receptor 52) | 0.241 | 0.194 | 0.291 | 0.105 |
| WDHD1 (WD repeat and HMG-box DNA binding protein 1) | 0.117 | 0.109 | 0.378 | 0.0611 |
| CACNG6 (calcium voltage-gated channel auxiliary subunit gamma 6) | 0.258 | 0.303 | 0.268 | 0.0319 |
| ATP2A1 | 0.0909 | 0.371 | 0.251 | 0.0357 |
| NEUROD1 (neuronal differentiation 1) | 0.0601 | 0.0865 | 0.246 | 0.00526 |
| ZNF236 (zinc finger protein 236) | 0.114 | 0.127 | 0.347 | 0.0147 |
| MSLN (mesothelin) | 0.0938 | 0.253 | 0.317 | 0.0155 |
| ZNF687 (zinc finger protein 687) | 0.17 | 0.11 | 0.36 | 0.0115 |
| FMN2 (formin 2) | 0.0641 | 0.0954 | 0.353 | 0.0359 |
| LMAN2L (lectin, mannose binding 2 like) | 0.154 | 0.417 | 0.39 | 0.041 |
| HS3ST4 (heparan sulfate-glucosamine 3-sulfotransferase 4) | 0.243 | 0.537 | 0.521 | 0.0492 |
| NBR2 (neighbor of BRCA1 lncRNA 2) | 0.191 | 0.113 | 0.275 | 0.0329 |
| SFMBT2 (Scm like with four mbt domains 2) | 0.095 | 0.0729 | 0.235 | 0.0251 |
| USP24 (ubiquitin specific peptidase 24) | 0.082 | 0.235 | 0.223 | 0.0297 |

8 entries from above, limited to “BNIP3L mRNA, set 1”.
INSL3 (insulin like 3) = 0.108
ASGR1 (asialoglycoprotein receptor 1) = 0.13
UBXN7 (UBX domain protein 7) = 0.121
GPR52 (G protein-coupled receptor 52) = 0.241
WDHD1 (WD repeat and HMG-box DNA binding protein 1) = 0.117
CACNG6 (calcium voltage-gated channel auxiliary subunit gamma 6) = 0.258
ATP2A1 = 0.0909
NEUROD1 (neuronal differentiation 1) = 0.0601
